Some results were stated once for a whole list of compounds, not compound by compound.
How the values were obtained:
[1] = system: human colorectal adenocarcinoma derived cell line HT-29; assay: Cellular assay (checkpoint abrogation); assay type: cell-based; conditions: HT-29 cells; 20 nM SN-38, then 300 nM nocodazole plus compound for 24 h; read-out: EC50 (50% decrease of phospho-Histone H3)
[2] = molecular target: T1, chk1 (Homo sapiens, UniProt O14757); assay: Chk1 primary assays (AlphaScreen / ATP radiometric); assay type: biochemical; conditions: assays of EXAMPLE i; 10 μM ATP, 30 minutes; AlphaScreen or ATP radiometric format not specified; read-out: IC50 against chk1
T1 construct: Full length human mutant recombinant protein, histidine tagged; histidine tag; purchased Invitrogen PV3982; host or cells: insect cells
T1 sequence (O14757 1-476): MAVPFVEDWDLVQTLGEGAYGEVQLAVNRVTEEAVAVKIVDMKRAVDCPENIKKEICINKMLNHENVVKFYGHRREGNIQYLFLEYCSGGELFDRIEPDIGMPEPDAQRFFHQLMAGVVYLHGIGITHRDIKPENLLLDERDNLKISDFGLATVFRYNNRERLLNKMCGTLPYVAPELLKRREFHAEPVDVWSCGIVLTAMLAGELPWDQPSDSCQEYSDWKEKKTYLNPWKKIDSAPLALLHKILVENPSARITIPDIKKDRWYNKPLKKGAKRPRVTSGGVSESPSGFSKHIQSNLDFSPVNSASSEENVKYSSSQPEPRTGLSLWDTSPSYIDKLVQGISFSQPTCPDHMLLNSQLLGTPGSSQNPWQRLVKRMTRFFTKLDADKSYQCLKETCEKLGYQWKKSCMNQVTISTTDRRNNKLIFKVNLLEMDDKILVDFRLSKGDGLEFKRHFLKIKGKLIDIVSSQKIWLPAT

SMILES: C[C@]1(O)CCN(c2c(Cl)cnc3[nH]c4cnc(C#N)cc4c23)C1 [Example 47, (S)-3-Chloro-4-(3-hydroxy-3-methylpyrrolidin-1-yl)-9H-dipyrido[2,3-b;4′,3′-d]pyrrole-6-carbonitrile]
- EC50 [1]: < 10 µM
- IC50 [2]: < 5 µM

SMILES: N#Cc1ncc2[nH]c3ncccc3c2c1N1CCC(N2CC[C@@H](F)C2)CC1 [Example 137, 5-[4-((R)-3-Fluoropyrrolidin-1-yl)-piperidin-1-yl]-9H-dipyrido[2,3-b;4′,3′-d]pyrrole-6-carbonitrile]
- EC50 [1]: < 10 µM
- IC50 [2]: < 5 µM

SMILES: CCN1CCC(Oc2cncc3[nH]c4ncccc4c23)CC1 [Example 178, 5-(1-Ethyl-piperidin-4-yloxy)-9H-dipyrido[2,3-b;4′,3′d]pyrrole]
- EC50 [1]: < 10 µM
- IC50 [2]: < 5 µM

SMILES: CN1CCC(Oc2c(C#N)ncc3[nH]c4ncc(Cl)cc4c23)CC1 [Example 167, 3-Chloro-5-(1-methyl-piperidin-4-yloxy)-9H-dipyrido[2,3-b;4′,3′-d]pyrrole-6-carbonitrile]
- EC50 [1]: < 10 µM
- IC50 [2]: < 5 µM

SMILES: CCN[C@H]1CCN(c2c(F)cnc3[nH]c4cnc(C#N)cc4c23)C1 [Example 57, (S)-3-Fluoro-4-(3-(ethylamino)pyrrolidin-1-yl)-9H-dipyrido[2,3-b;4′,3′-d]pyrrole-6-carbonitrile]
- EC50 [1]: < 10 µM
- IC50 [2]: < 5 µM

SMILES: N#Cc1ncc2[nH]c3ncccc3c2c1N1CCC(N2CCC2)CC1 [Example 136, 5-(4-Azetidin-1-yl-piperidin-1-yl]-9H-dipyrido[2,3-b;4′,3′-d]pyrrole-6-carbonitrile]
- EC50 [1]: < 10 µM
- IC50 [2]: < 5 µM

SMILES: CN(C)[C@H]1CC[C@H](Oc2ccnc3[nH]c4cnc(C#N)cc4c23)CC1 [Example 28, 4-((1r,4r)-4-(dimethylamino)cyclohexyloxy)-9H-dipyrido[2,3-b;4′,3′-d]pyrrole-6-carbonitrile]
- EC50 [1]: < 10 µM
- IC50 [2]: < 5 µM

SMILES: CC(C)C(=O)N[C@H]1CCN(c2c(Cl)cnc3[nH]c4cnc(C#N)cc4c23)C1 [Example 92, (S)-3-Chloro-4-(N-(pyrrolidin-3-yl)isobutyramide)-9H-dipyrido[2,3-b;4′,3′-d]pyrrole-6-carbonitrile]
- EC50 [1]: < 10 µM
- IC50 [2]: < 5 µM

SMILES: CCN[C@H]1CCN(c2ccnc3[nH]c4cnccc4c23)C1 [Example 96, [(S)-1-(9H-Dipyrido[2,3-b;4′,3′-d]pyrrol-4-yl)-pyrrolidin-3-yl]-ethyl-amine]
- EC50 [1]: < 10 µM
- IC50 [2]: < 5 µM

SMILES: N#Cc1ncc2[nH]c3ncccc3c2c1N1CCC(N2CC[C@@H](O)C2)CC1 [Example 139, 5-[4-((R)-3-Hydroxy-pyrrolidin-1-yl)-piperidin-1-yl]-9H-dipyrido[2,3-b;4′,3′-d]pyrrole-6-carbonitrile]
- EC50 [1]: < 10 µM
- IC50 [2]: < 5 µM

SMILES: N#Cc1cc2c(cn1)[nH]c1nccc(O[C@H]3CCNC[C@H]3F)c12 (relative stereo) [Example 100]
- EC50 [1]: < 10 µM
- IC50 [2]: < 5 µM

SMILES: N#Cc1cc2c(cn1)[nH]c1nccc(O[C@H]3CCCNC3)c12 [Example 60, (S)-4-(piperidin-3-yloxy)-9H-dipyrido[2,3-b;4′,3′-d]pyrrole-6-carbonitrile]
- EC50 [1]: < 10 µM
- IC50 [2]: < 5 µM

SMILES: N#Cc1cc2c(cn1)[nH]c1ncc(Cl)c(N3CC[C@H](NCCCF)C3)c12 [Example 90, (S)-3-Chloro-4-(N-(3-fluoropropyl)pyrrolidin-3-amino)-9H-dipyrido[2,3-b;4′,3′-d]pyrrole-6-carbonitrile]
- EC50 [1]: < 10 µM
- IC50 [2]: < 5 µM

SMILES: N#Cc1cc2c(cn1)[nH]c1nccc(OC[C@@H]3CNCCO3)c12 [Example 4, (S)-4-(morpholin-2-ylmethoxy)-9H-dipyrido[2,3-b;4′,3′-d]pyrrole-6-carbonitrile]
- EC50 [1]: < 10 µM
- IC50 [2]: < 5 µM

SMILES: N#Cc1cc2c(cn1)[nH]c1nccc(N3CCC(N4CCCC4)CC3)c12 [Example 102, 4-(4-Pyrrolidin-1-ylpiperidin-1-yl)-9H-dipyrido[2,3-b;4′,3′-d]pyrrole-6-carbonitrile]
- EC50 [1]: < 10 µM
- IC50 [2]: < 5 µM

SMILES: COCCN1CCC(Nc2c(C#N)ncc3[nH]c4ncccc4c23)CC1 [Example 115, 5-[1-(2-Methoxy-ethyl)-piperidin-4-ylamino]-9Hdipyrido[2,3-b;4′,3′-d]pyrrole-6-carbonitrile]
- EC50 [1]: < 10 µM
- IC50 [2]: < 5 µM

SMILES: N#Cc1ncc2[nH]c3ncccc3c2c1N1CCC(N2CCOCC2)CC1 [Example 171, 5-(4-Morpholin-4-yl-piperidin-1-yl)-9H-dipyrido[2,3-b;4′,3′-d]pyrrole-6-carbonitrile]
- EC50 [1]: < 10 µM
- IC50 [2]: < 5 µM

SMILES: N#Cc1cc2c(cn1)[nH]c1nccc(N3CC4CC3CN4)c12 (centres unmarked) [Example 81, 4-(2,5-diazabicyclo[2.2.1]heptan-2-yl)-9H-dipyrido[2,3-b;4′,3′-d]pyrrole-6-carbonitrile]
- EC50 [1]: < 10 µM
- IC50 [2]: < 5 µM

SMILES: N#Cc1ncc2[nH]c3ncccc3c2c1N1CCC(N2CCC(F)CC2)CC1 [Example 142, 5-(4-Fluoro-[1,4′]bipiperidinyl-1′-yl)-9H-dipyrido[2,3-b;4′,3′-d]pyrrole-6-carbonitrile]
- EC50 [1]: < 10 µM
- IC50 [2]: < 5 µM

SMILES: CN1CCN[C@H](COc2ccnc3[nH]c4cnc(C#N)cc4c23)C1 [Example 10, (S)-4-((4-methylpiperazin-2-yl)methoxy)-9H-dipyrido[2,3-b;4′,3′-d]pyrrole-6-carbonitrile]
- EC50 [1]: < 10 µM
- IC50 [2]: < 5 µM

SMILES: N#Cc1cc2c(cn1)[nH]c1ncc(Cl)c(N3C[C@H](O)[C@@H](O)C3)c12 [Example 44, 3-Chloro-4-((3S,4S)-3,4-dihydroxypyrrolidin-1-yl)-9H-dipyrido[2,3-b;4′,3′-d]pyrrole-6-carbonitrile]
- EC50 [1]: < 10 µM
- IC50 [2]: < 5 µM

SMILES: N#Cc1cc2c(cn1)[nH]c1ncc(Cl)c(N3CCC[C@@H](O)C3)c12 [Example 50, (R)-3-Chloro-4-(3-hydroxypiperidin-1-yl)-9H-dipyrido[2,3-b;4′,3′-d]pyrrole-6-carbonitrile]
- EC50 [1]: < 10 µM
- IC50 [2]: < 5 µM

SMILES: CCC1(COc2ccnc3[nH]c4cnc(C#N)cc4c23)CCN(C)CC1 [Example 70, 4-((4-ethyl-1-methylpiperidin-4-yl)methoxy)-9H-dipyrido[2,3-b;4′,3′-d]pyrrole-6-carbonitrile]
- EC50 [1]: < 10 µM
- IC50 [2]: < 5 µM

SMILES: N#Cc1ncc2[nH]c3ncccc3c2c1N1CCC(N2CC(O)C2)CC1 [Example 134, 5-[4-(3-Hydroxy-azetidin-1-yl)-piperidin-1-yl]-9H-dipyrido[2,3-b;4′,3′-d]pyrrole-6-carbonitrile]
- EC50 [1]: < 10 µM
- IC50 [2]: < 5 µM

SMILES: CCN1CCC(Nc2c(C#N)ncc3[nH]c4ncc(Cl)cc4c23)CC1 [Example 158, 3-Chloro-5-(1-ethyl-piperidin-4-ylamino)-9H-dipyrido[2,3-b;4′,3′-d]pyrrole-6-carbonitrile]
- EC50 [1]: < 10 µM
- IC50 [2]: < 5 µM

SMILES: CN1CCN[C@@H](COc2ccnc3[nH]c4cnc(C#N)cc4c23)C1 [Example 9, (R)-4-((4-methylpiperazin-2-yl)methoxy)-9H-dipyrido[2,3-b;4′,3′-d]pyrrole-6-carbonitrile]
- EC50 [1]: < 10 µM
- IC50 [2]: < 5 µM

SMILES: CN1CCCC(Oc2c(C#N)ncc3[nH]c4ncccc4c23)CC1 (centres unmarked) [Example 163, 5-(1-Methyl-azepan-4-yloxy)-9H-dipyrido[2,3-b;4′,3′-d]pyrrole-6-carbonitrile]
- EC50 [1]: < 10 µM
- IC50 [2]: < 5 µM

SMILES: CN1CCC(C)(COc2c(Br)cnc3[nH]c4cnc(C#N)cc4c23)CC1 [Example 40, 3-Bromo-4-((1,4-dimethylpiperidin-4-yl)methoxy)-9H-dipyrido[2,3-b;4′,3′-d]pyrrole-6-carbonitrile]
- EC50 [1]: < 10 µM
- IC50 [2]: < 5 µM

SMILES: CCN1CCC(Oc2c(C#N)ncc3[nH]c4ncc(C)cc4c23)CC1 [Example 177, 5-(1-Ethyl-piperidin-4-yloxy)-3-methyl-9H-dipyrido[2,3-b;4′,3′-d]pyrrole-6-carbonitrile]
- EC50 [1]: < 10 µM
- IC50 [2]: < 5 µM

SMILES: CCN1CCN(c2ccnc3[nH]c4cnc(C#N)cc4c23)CC1 [Example 101, 4-(4-Ethylpiperazin-1-yl)-9H-dipyrido[2,3-b;4′,3′-d]pyrrole-6-carbonitrile]
- EC50 [1]: < 10 µM
- IC50 [2]: < 5 µM

SMILES: CCN1CCCC(COc2c(C#N)ncc3[nH]c4ncccc4c23)C1 (centres unmarked) [Example 160, 5-(1-Ethyl-piperidin-ylmethoxy)-9H-dipyrido[2,3-b;4′,3′d]pyrrole-6-carbonitrile]
- EC50 [1]: < 10 µM
- IC50 [2]: < 5 µM

SMILES: N#Cc1ncc2[nH]c3ncccc3c2c1N1CCC(N2CC[C@H](O)C2)CC1 [Example 138, 5-[4-((S)-3-Hydroxypyrrolidin-1-yl)-piperidin-1-yl]-9H-dipyrido[2,3-b;4′,3′-d]pyrrole-6-carbonitrile]
- EC50 [1]: < 10 µM
- IC50 [2]: < 5 µM

SMILES: CNC[C@H]1CN(c2ccnc3[nH]c4cnc(C#N)cc4c23)CCO1 [Example 21]
- EC50 [1]: < 10 µM
- IC50 [2]: < 5 µM

SMILES: N#Cc1cc2c(cn1)[nH]c1nccc(OC[C@H]3CCCCN3)c12 [Example 72, (R)-4-(piperidin-2-ylmethoxy)-9H-dipyrido[2,3-b;4′,3′-d]pyrrole-6-carbonitrile]
- EC50 [1]: < 10 µM
- IC50 [2]: < 5 µM

— patent US9440976B2, “1,7-diazacarbazoles and methods of use” (Genentech, Inc., priority 2009, dated 2016)
